The list shows a part of the results.

Amino acid sequences for entries named in this document (tags omitted).
UniProt Q0JBA9, entry or part of it: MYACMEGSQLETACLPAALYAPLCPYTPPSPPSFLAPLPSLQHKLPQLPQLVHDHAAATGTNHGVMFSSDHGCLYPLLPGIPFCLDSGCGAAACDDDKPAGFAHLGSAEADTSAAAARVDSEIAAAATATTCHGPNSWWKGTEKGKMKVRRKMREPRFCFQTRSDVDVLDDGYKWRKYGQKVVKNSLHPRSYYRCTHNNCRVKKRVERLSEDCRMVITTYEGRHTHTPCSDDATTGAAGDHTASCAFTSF

The assay concerns the target OsWRKY34 (Oryza sativa, UniProt Q0JBA9 1-250). In words: protein-binding microarray (RPBM); PBS, 2% BSA, 51.3 ng/ul salmon testes DNA, 50 uM zinc acetate, 200 nM TF, 25 C, 1 h; high values mean tight binding. Particulars: protein: recombinant; tags: N-terminal polyhistidine and DsRed monomer fusion (pET32a); label: CyDye5-dUTP incorporated in the synthesized complementary strand; 3' TTTTT single-stranded linker to array surface; dsDNA, one strand shown. Summed up: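 Per-feature fluorescence intensity (arbitrary units), read on an Axon 4000B scanner, is the binding signal. Transcription factors carrying an N-terminal polyhistidine tag and DsRed fusion were expressed in E. coli BL21-CodonPlus and purified on Ni–NTA. A custom Agilent array, made double-stranded by primer extension with Cy5-dUTP and blocked with 2% BSA, was incubated with 200 nM protein in PBS, 2% BSA, salmon testes DNA and 50 µM zinc acetate at 25 °C for 1 h and then washed.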
Take “GATATATTATACTCTAGTTTGATGCCCATCTGTTCCTATACGGAGTCACCTAGTGCAG”: the binding signal is 8050 fluorescence intensity (a.u.).

With “GACTTGTTATCGTATAATTAATTAAGTACTATCGTATAATCGGAGTCACCTAGTGCAG”, the binding signal was 8050 fluorescence intensity (a.u.).

Take “TGTAGAGAACCCACATGTTTCTGGTAGAATCTTCTCCCTGCGGAGTCACCTAGTGCAG”: the binding signal was 8050 fluorescence intensity (a.u.).

As for “ATCAGGTTTGCCGCGAGTTGTACTTCCTTGCACGCCACCACGGAGTCACCTAGTGCAG”, the binding signal was 8340 fluorescence intensity (a.u.).

Take “CTTGGTTGGTTGGTTGATCGATCCGGTGCCCGGATTTGGGCGGAGTCACCTAGTGCAG”: the binding signal was 8620 fluorescence intensity (a.u.).

Turning to “TCTCGCCTTTTATTTCTTCTTCTTCTTCCCTTCTCCGTCGCGGAGTCACCTAGTGCAG”, the binding signal was 8290 fluorescence intensity (a.u.).

On to “GAGATGTTGGTTTTGTGGGTTGAGGGATGATTTTATAACTCGGAGTCACCTAGTGCAG”, for which the binding signal was 13700 fluorescence intensity (a.u.).

“CCCACGTTCTTTTCCCAATTTCAAACGCCGTTTTTTTTTCCGGAGTCACCTAGTGCAG”: the binding signal is 8070 fluorescence intensity (a.u.).

For the sequence “GCTCATGTATATATGCTACATATGTCACTATATATATTTACGGAGTCACCTAGTGCAG”, the binding signal was 8640 fluorescence intensity (a.u.).

“GATCGCGGACCGCGTGGGCTTTTTGCCTTCCTGGGCTTTCCGGAGTCACCTAGTGCAG”: the binding signal was 8260 fluorescence intensity (a.u.).

As to “TAACTTTCCTTGCATTCCTTCTGCTTGCCAAGTACATTGTCGGAGTCACCTAGTGCAG”, the binding signal is 13900 fluorescence intensity (a.u.).

As for “TCAAGCCTAAATTGGGTGTCCCCACAGTCGTCCAGTCCGACGGAGTCACCTAGTGCAG”, the binding signal was 8880 fluorescence intensity (a.u.).

Take “AAATTTAAAGCGGTTTGACTTTGACCATAATCAAAAAGACCGGAGTCACCTAGTGCAG”: the binding signal was 8630 fluorescence intensity (a.u.).

On to “CAGCTTCATCTCCAGCCAACACTAGTATCCCATCCATTCTCGGAGTCACCTAGTGCAG”, for which the binding signal is 8860 fluorescence intensity (a.u.).

For the sequence “GCTCGCGGCGGCGCTCCTCTACCGCGCGCCCTTTTCCAAGCGGAGTCACCTAGTGCAG”, the binding signal is 8850 fluorescence intensity (a.u.).

With “CGCCGCCTCCTCTCTCCGTCTCGCTTCGGTTCCTTCCTCGCGGAGTCACCTAGTGCAG”, the binding signal is 13100 fluorescence intensity (a.u.).

For “CTGTGAATTGTATTTCACTTCCATTCCTGCTTCCGCCCTTCGGAGTCACCTAGTGCAG”, the binding signal was 9160 fluorescence intensity (a.u.).

As for “CTACACACATAAACTTTCAACTTTTCTGTCACATCGTTCTCGGAGTCACCTAGTGCAG”, the binding signal was 8960 fluorescence intensity (a.u.).

As for “ACATATCCTAAGGAACTCTAGTTCCGCGTCTAATTTATCTCGGAGTCACCTAGTGCAG”, the binding signal was 8670 fluorescence intensity (a.u.).

Regarding “TCTGTGTTTTGCAATTATCTGTTTTACACTTATATTCCTACGGAGTCACCTAGTGCAG”, the binding signal was 11100 fluorescence intensity (a.u.).

“ATCTGTGCAAGAAGGAACGAAGAGCACGGCATGATGAAGTCGGAGTCACCTAGTGCAG”: the binding signal is 8320 fluorescence intensity (a.u.).

Turning to “ACTCCACCATCGCTCGCGACCCGCGCCCACGCCCGCGCACCGGAGTCACCTAGTGCAG”, the binding signal is 10000 fluorescence intensity (a.u.).

For “CTGGTTGCCTCTGCTCTGCTCTCCCTCCATTTCGAATTTCCGGAGTCACCTAGTGCAG”, the binding signal is 10100 fluorescence intensity (a.u.).

On to “GGTTCGTCCTCACCATCTCGCGAAACCATTGCTTACCATGCGGAGTCACCTAGTGCAG”, for which the binding signal is 9970 fluorescence intensity (a.u.).

As for “CCACCGCCGGCCACACACCTCCTGCCACGCCGCGCGCTCGCGGAGTCACCTAGTGCAG”, the binding signal was 10900 fluorescence intensity (a.u.).

Take “GCCACGTTCACATCTCCGACGCCTCCGTGTCCATTGCAGTCGGAGTCACCTAGTGCAG”: the binding signal was 9160 fluorescence intensity (a.u.).

For the sequence “TCGAATGTACTTTGAGATTCATACGGGGAGGGAAAAAAATCGGAGTCACCTAGTGCAG”, the binding signal was 8990 fluorescence intensity (a.u.).

With “GCCTCGCCTGCAACCTGCTTGTCTAGCACTCTTTGTGGAACGGAGTCACCTAGTGCAG”, the binding signal was 10500 fluorescence intensity (a.u.).

With “CGAGAAGGGGATGGGGAGGAGGAGAGGGAGCGGGAGAGGGCGGAGTCACCTAGTGCAG”, the binding signal is 10100 fluorescence intensity (a.u.).

As to “CCCGTCACTGTCACTCGCCACACTATAAATAGCACCCAAACGGAGTCACCTAGTGCAG”, the binding signal is 9330 fluorescence intensity (a.u.).

As for “ATCTTGGGAAGGCCGTTACTCACTCTAGACTTTACTCCTCCGGAGTCACCTAGTGCAG”, the binding signal was 8270 fluorescence intensity (a.u.).

In the case of “ACTGCACTCCAAAACCTACCTCTTACTCTGCTAGTCAGTGCGGAGTCACCTAGTGCAG”, the binding signal is 9900 fluorescence intensity (a.u.).

Regarding “AGTTTATTTTATATGGAGGGGTTTAATATATCAAATTTCACGGAGTCACCTAGTGCAG”, the binding signal is 11200 fluorescence intensity (a.u.).

Turning to “GAGCATCTCTCTCTGGTCTCCGCTCGCCGCGGCTTCACGTCGGAGTCACCTAGTGCAG”, the binding signal is 9020 fluorescence intensity (a.u.).

For “GACTGCCAAACAATTCCCCTTCAGCTCACTGCCATCCTCCCGGAGTCACCTAGTGCAG”, the binding signal is 8480 fluorescence intensity (a.u.).

Turning to “GAAAATGCTACACTTGTCCCGCTTCTCTAATTGTCAAATCCGGAGTCACCTAGTGCAG”, the binding signal was 8360 fluorescence intensity (a.u.).

On to “TCCTACACTGTCGCTTAGGCACACTGTCTCCCTGACTGATCGGAGTCACCTAGTGCAG”, for which the binding signal was 8920 fluorescence intensity (a.u.).

In the case of “TCCTACTCCGGGTCATCTACGCCACCTCCCACATGCACACCGGAGTCACCTAGTGCAG”, the binding signal was 10700 fluorescence intensity (a.u.).

In the case of “AACTTAGCCAATTGCGCCGTGCTTTGACTACGCCCCGGAACGGAGTCACCTAGTGCAG”, the binding signal is 8080 fluorescence intensity (a.u.).

“GATAAACTTTTGGATACTCATGACACGCTTTTCAAACTGCCGGAGTCACCTAGTGCAG”: the binding signal is 9040 fluorescence intensity (a.u.).

Consider “TGATCGAGAGAGGTGTTGTTGGAAGCTTGGTTGGTTGGGGCGGAGTCACCTAGTGCAG”, for which the binding signal was 9000 fluorescence intensity (a.u.).

For the sequence “TGTCGCCATCTCCCGATCCACCACCACGGGCGCACGCGCGCGGAGTCACCTAGTGCAG”, the binding signal was 8460 fluorescence intensity (a.u.).

For the origin of these results see publication PMC7819943, “Rice protein-binding microarrays: a tool to detect cis-acting elements near promoter regions in rice”.
